The values that follow come from PubChem BioAssay AID1487 (National Center for Advancing Translational Sciences (NCATS), 2009).

This is one part of the list. Further columns of the screen follow, without active or inactive calls. The list favours compounds with an active or inconclusive main result. Potencies come from curve fits of mixed quality, noted in brackets.

The nature of the test: qHTS Assay for Modulators of Lamin A Splicing. Conditions: HeLa LMNA splicing GFP/RFP minigene ratio, 48 h. An excerpt: NCGC Assay Overview: Hutchinson-Gilford Progeria Syndrome (HGPS) is a pediatric premature aging disease caused by a spontaneous mutation in the lamin A/C (LMNA) gene. The mutation activates a cryptic splice site in the LMNA pre-mRNA which results in production of a pre-lamin A protein that cannot be processed properly. The mutant protein accumulates in the nucleus and negatively affects numerous cellular functions. Correction of the splicing defect in HGPS patient cells using a targeted oligonucleotide (exo11) leads to reversal of the cellular disease phenotypes. To identify small molecule modulators of aberrant LMNA splicing, a homogenous assay was constructed in HeLa cells that used a GFP containing minigene to report on correction of aberrant splicing in lamin A and a RFP (DsRed2) to report on cell viability, uniformity and nonspecific effects on the assay signal. This assay was adapted to laser-scanning microplate cytometry (Acumen, TTP Labtech) where miniaturization of the assay to a 1,536-well plate format was possible. References: Bowen, W. P.; Wylie, P. G. Application of Laser-Scanning Fluorescence Microplate Cytometry in High Content Screening. Assay Drug Dev Technol 2006;4:209-221. Scaffidi P, Misteli T. Reversal of the cellular phenotype in the premature aging disease Hutchinson-Gilford progeria syndrome. Nat.
NCGC Assay Protocol Summary: Reagents/Controls: Stable clones expressing DsRed2 and lamin A-EGFP were generated by Cell and Molecular Technologies in S3 HeLa cells. HeLa cells were prepared for the assay when they were 70-90% confluent. The cells were counted and resuspended in Opti-MEM I (no phenol red; Gibco), 2% FBS, 1% penicillin/ streptomycin (Gibco) at concentration of 120 cells/uL concentration. The suspension was passed through a Falcon basket filter with pore size 40um (Beckton Dickson). Control titrations: column […] 1536-well plate contained a sixteen point titration (1:2 dilutions) in duplicate of ancitabine (Sigma: A8598) beginning at 40 uM final concentration. Column 2 contained a sixteen point titration (1:2 dilutions) of cycloheximide beginning at 1.4 mM final concentration. Column 3 contained ancitabine at 40 uM and column 4 contained was the vehicle control (0.5% DMSO final concentration). Assay Steps: 5 uL of HeLa cells were plated in Aurora LoBase black clear bottom (cyclic-olefin polymer) 1536-well plates at a final density of 600 cells/well. Controls and library compounds were added with a 1536-well pin array using the Kalypsys pin-tool. The plates were then incubated for 48 hrs in a cell-culture incubator (37 °C; 5% CO2, 98% humidity). Following incubation the plates were read on the Acumen Explorer using the 488 nm laser. Data was collected on objects between 10 and 100 um in size. Cell objects were defined by a 15 um width x 10 um depth filter. The ratio of the total object intensity in PMT1 (500-530 nm emission; GFP) over PMT3 (575-640 nm emission; RFP) was calculated for analysis. Keywords: NIH Roadmap, MLSCN, MLI, MLSMR, qHTS, NCGC, lamin A, Progeria, RNA splicing.

The mark [1] stands for this setting: measured here: GFP splicing reporter channel.
[2] abbreviates: measured here: RFP viability control channel.

One may read the AC50 as the concentration at which the activity in the assay is half-maximal. Turning to `COc1ccc(C)cc1N/C(N)=N/c1nc(C)cc(C)n1`, the AC50 under setting [1] is 25.1 µM [falling, single point].
Take `Cc1ccc(NC(=O)c2ccccc2NC(=O)CCC(=O)O)cc1`: the AC50 under setting [2] is 0.0282 µM [falling, full curve, poor fit].
As for `Cc1ccc(P(=O)(CSC(=N)N)c2ccc(C)cc2)cc1`, the half-maximal activity concentration (AC50) was 2 µM [rising, partial curve, poor fit] under setting [1] and 0.398 µM [rising, full curve, poor fit] under setting [2].
With `Oc1c(CN2CCc3ccccc3C2)cc(Cl)c2cccnc12`, the half-maximal activity concentration (AC50) under setting [1] is 14.1 µM [falling, single point].
In the case of `CCOc1ccc(NS(=O)(=O)c2ccc(NC(=S)NC(=O)C(C)C)cc2)cc1`, the AC50 under setting [2] is 35.5 µM [rising, single point].
As to `Cn1c(=O)c2c(nc(N/N=C/c3ccc(OC(=O)c4ccco4)cc3)n2Cc2ccccc2)n(C)c1=O`, the half-maximal activity concentration (AC50) by setting is: under setting [1], 22.4 µM [rising, partial curve]; under setting [2], 14.1 µM [rising, partial curve].
Take `O=C(N/N=C\c1ccc([N+](=O)[O-])s1)c1cncc(Br)c1`: the AC50 is 10 µM [rising, partial curve] under setting [1] and 11.2 µM [rising, partial curve] under setting [2].
Consider `O=C(Nc1ccc(S(=O)(=O)NCc2ccccc2)cc1)c1ccc(Br)o1`, for which the half-maximal activity concentration (AC50) runs as follows: under setting [1], 15.8 µM [rising, single point]; under setting [2], 12.6 µM [rising, partial curve].
As to `COc1ccc(CCC(=O)N2CCN(S(=O)(=O)c3ccc4ccccc4c3)CC2)cc1`, the concentration at half-maximal activity (AC50) was 12.6 µM [rising, partial curve] under setting [1] and 17.8 µM [rising, single point] under setting [2].
Consider `COc1ccc(N2C(=O)CS(=O)(=O)C23C(=O)N(Cc2ccc(C)cc2)c2ccccc23)cc1Cl` (stereo not given), for which, under setting [2], the AC50 is 14.1 µM [rising, single point].
Regarding `O=c1c2c(ncn2C2CCCC2)n(Cc2ccccc2)c(=O)n1CCOc1ccc(Br)cc1`, the AC50 under setting [2] was 10 µM [rising, partial curve].
Still for that read-out and setting: as for `O=C1c2cccnc2C(Nc2cccc(F)c2)N1Cc1ccco1` (stereo not given), the figure is 0.0891 µM [rising, full curve].
Regarding `Cc1sc(NC(=O)Cc2ccc3c(c2)OCO3)nc1-c1ccc2c(c1)CCN2C(=O)c1cccc(F)c1`, the AC50 runs as follows: under setting [1], 3.55 µM [rising, partial curve]; under setting [2], 4.47 µM [rising, full curve].
`COC(=O)CCCC1=CC2=CC(=O)C(C)(OC(=O)c3cccs3)C(=O)C2=CN1C1CCCCC1` (stereo not given): under setting [2], the AC50 was 0.0112 µM [falling, full curve, poor fit].
`Cc1cccc(Cc2cnc(N3C(=N)SC(C)C3=O)s2)c1` (stereo not given): under setting [2], the half-maximal activity concentration (AC50) is 15.8 µM [rising, single point].
As for `Cc1nc2sc(C(=O)c3ccccc3)c(N)c2c(C)c1C`, the AC50 under setting [1] is 11.2 µM [falling, partial curve].
Consider `CCn1c2ccccc2c2cc(/C=N/NC(=O)c3ccccc3C)ccc21`, for which, under setting [2], the AC50 is 4.47 µM [rising, single point].
With `Cc1ccccc1CSc1ccc(-c2ccc3c(c2)OCO3)nn1`, the AC50 is 17.8 µM [rising, single point] under setting [1] and 35.5 µM [rising, single point] under setting [2].
On to `O=C(Nn1c(C2CCCCC2)nc2ccccc2c1=O)c1ccc([N+](=O)[O-])cc1`, for which the AC50 under setting [1] is 15.8 µM [falling, single point].
`CCOC(=O)N1CCC(NS(=O)(=O)c2cc(Br)cnc2N)CC1`: the AC50 under setting [1] is 7.94 µM [rising, partial curve].
In the case of `CC(C)CCN(C(=O)Nc1ccccc1)C(C)c1cccs1` (stereo not given), the concentration at half-maximal activity (AC50) under setting [1] is 1.78 µM [falling, partial curve] and the AC50 under setting [2] was 35.5 µM [falling, partial curve].
For `S=c1[nH]nc(-c2ccco2)n1-c1ccccc1Cl`, under setting [1], the AC50 was 5.62 µM [rising, partial curve, poor fit].
Same read-out and setting: in the case of `Cc1cc(C(=O)N2CCN(c3ncccn3)CC2)c2cc(F)ccc2n1` it was 11.2 µM [rising, single point]; in that of `O=c1nc(Nc2ccc(OCc3ccccc3)cc2)sc2ncccc12`, 0.891 µM [falling, full curve, poor fit].
With `Cc1ccc(-c2cc(C(=O)NCCCn3ccnc3)c3ccccc3n2)s1`, the half-maximal activity concentration (AC50) under setting [1] was 4.47 µM [rising, full curve, poor fit].
As to `COc1ccccc1NC(=S)Nc1cccc2cnccc12`, the AC50 under setting [2] was 7.94 µM [rising, partial curve].
Same read-out and setting: as for `CCOc1ccccc1NC(=O)N1CCC(NC(=O)c2cccc(C)c2)CC1`, the figure is 11.2 µM [rising, single point]; as for `Cc1ccc(-c2nc(C#N)c(NCC3CCCO3)o2)cc1` (stereo not given), 12.6 µM [falling, partial curve]; as for `COc1cc(-c2ccccc2)nc2ccccc12`, 35.5 µM [rising, single point].
For `Cc1cc(C)cc(OCC(=O)N2N=C(c3cccnc3)CC2(O)C(F)(F)F)c1` (stereo not given), the half-maximal activity concentration (AC50) was 20 µM [rising, single point] under setting [1] and 31.6 µM [rising, single point] under setting [2].
For the compound `O=c1c2cnn(-c3ccccc3)c2ncn1Cc1ccccc1F`, the AC50 by setting is: under setting [1], 6.31 µM [rising, partial curve, poor fit]; under setting [2], 12.6 µM [rising, partial curve].
`O=C(Nc1ccc(Br)cc1)c1ccc(F)c(S(=O)(=O)N2CCc3ccccc32)c1`: the AC50 under setting [2] was 7.08 µM [rising, partial curve].
The same measure, in the same setting: in the case of `COc1ccc(/C=N/N=C2/CC(C)(C)Cc3n[nH]c(=O)cc32)cc1` it was 15.8 µM [rising, partial curve].
Regarding `Cc1ccc(NC(=O)CN(C)CC(=O)Nc2ccccc2-c2ccccc2)cc1`, the concentration at half-maximal activity (AC50) under setting [1] is 0.316 µM [falling, full curve].
On the same count and under the same terms, as for `CCCOc1nc2c(c(=O)n(C)c(=O)n2C)n1CCC`, the figure is 35.5 µM [rising, single point].
As for `COc1cc(CSc2ncn[nH]2)c(OC)cc1CSc1ncn[nH]1`, the AC50 under setting [2] is 12.6 µM [falling, partial curve].
For the compound `Cc1ccc(S(=O)(=O)C(CNC(=O)C(=O)NCc2ccccc2C)c2cccs2)cc1` (stereo not given), the AC50 under setting [1] is 22.4 µM [falling, single point].
Regarding `COc1ccc(C(=O)/C=C/Nc2c(C)n(C)n(-c3ccccc3)c2=O)cc1OC`, under setting [2], the AC50 was 35.5 µM [rising, single point].
The same measure, in the same setting: as for `COc1ccc(N=c2cc(-c3ccc(O)cc3)oc3ccccc23)cc1`, the figure is 10 µM [rising, partial curve, poor fit].
Take `O=C(/C=C/c1ccccc1[N+](=O)[O-])NCc1ccc(Cl)cc1`: the half-maximal activity concentration (AC50) under setting [1] was 0.0112 µM [rising, full curve, poor fit].
`Cc1ccc2c(c1)Oc1ccccc1C=C2C(=O)O`: the AC50 under setting [2] is 0.0891 µM [falling, full curve].
As for `O=C(Cc1ccc2c(c1)OCCO2)N1CCN(S(=O)(=O)c2ccccc2C(F)(F)F)CC1`, the concentration at half-maximal activity (AC50) by setting is: under setting [1], 11.2 µM [rising, single point]; under setting [2], 17.8 µM [rising, single point].
Consider `COC(=O)c1c(NS(=O)(=O)c2ccc3ccccc3c2)sc2c1CCCC2`, for which the AC50 under setting [2] was 17.8 µM [rising, single point].
Turning to `COc1ccc(C2CC(=O)c3c(C)nc(N4CCN(Cc5ccccc5)CC4)nc3C2)cc1OC` (stereo not given), the AC50 is, setting by setting: under setting [1], 0.631 µM [rising, partial curve, poor fit]; under setting [2], 4.47 µM [rising, full curve].
Take `O=c1c(-c2ccc(F)cc2)nc2cnc(N3CCNCC3)nc2n1Cc1cccs1`: the concentration at half-maximal activity (AC50) was 17.8 µM [falling, partial curve] under setting [1] and 15.8 µM [falling, partial curve] under setting [2].
For the compound `Cc1cc(Cl)n2c(nc3cc(F)c(F)cc32)c1C#N`, the half-maximal activity concentration (AC50) by setting is: under setting [1], 0.0398 µM [falling, full curve, poor fit]; under setting [2], 3.16 µM [falling, full curve].
As to `COc1ccc(-c2nnn(CC(=O)NCc3ccccc3)n2)cc1OC`, the half-maximal activity concentration (AC50) is 31.6 µM [rising, single point] under setting [1] and 20 µM [rising, single point] under setting [2].
Consider `O=C(c1cc(-c2ccco2)nc2ccccc12)N1CCN(c2ccc(F)cc2)CC1`, for which the half-maximal activity concentration (AC50) under setting [2] is 11.2 µM [rising, single point].
As for `O=C1C=C(N2CCOCC2)C2(CCCCC2)O1`, the AC50 was 22.4 µM [falling, single point] under setting [1] and 25.1 µM [falling, single point] under setting [2].
Consider `c1ccc2c(c1)CCN(c1nc(CN3CCOCC3)nc3sc4c(c13)CCCC4)C2`, for which the half-maximal activity concentration (AC50) under setting [2] was 35.5 µM [rising, single point].
Same read-out and setting: as for `CSCC[C@H](NC(=O)COc1ccc(Cl)cc1)c1nc2ccccc2[nH]1`, the figure is 20 µM [rising, single point]; as for `Cc1ccc(Cc2nc3ccccc3nc2SCC(=O)N2CCN(c3ccc(F)cc3)CC2)cc1`, 5.62 µM [falling, partial curve]; as for `Cc1cccc(OCCCC(=O)Nc2ccc(Br)cc2)c1`, 35.5 µM [rising, single point].
As to `Cc1ccc(Nc2cc(C)nn2-c2nc(C)cc(C)n2)cc1`, the AC50 is 14.1 µM [rising, partial curve] under setting [1] and 10 µM [rising, partial curve] under setting [2].
For `O=C(Nc1cn(-c2ccccc2)nc1-c1ccccc1)c1ccccc1`, the half-maximal activity concentration (AC50) under setting [2] was 35.5 µM [rising, single point].
`C=CCOc1c(OC)cc(/C=N/Nc2cccc(C(=O)O)c2)c(Br)c1Br`: the AC50 under setting [1] is 5.62 µM [rising, partial curve, poor fit].
As for `O=C(NNC(=O)c1cccnc1SCc1cccc([N+](=O)[O-])c1)c1ccc(F)cc1`, under setting [2], the half-maximal activity concentration (AC50) was 15.8 µM [rising, partial curve].
As for `COC(=O)CCCNC(=O)c1ccc2[nH]c(C)c(C)c2c1`, the AC50 under setting [2] was 5.62 µM [falling, single point].
